Reference: publication PMC3741296
No constants are given. Whether binding was seen depends on the method and setting. In cells and extracts the contact can be indirect. Binding can be weak; no strength is given.

Protein sequences, listed by entry. Tags and fused reporters are not part of them. Lines headed by an entry give the natural chain unless they say otherwise; changes in a name come on top.
UniProt P35613: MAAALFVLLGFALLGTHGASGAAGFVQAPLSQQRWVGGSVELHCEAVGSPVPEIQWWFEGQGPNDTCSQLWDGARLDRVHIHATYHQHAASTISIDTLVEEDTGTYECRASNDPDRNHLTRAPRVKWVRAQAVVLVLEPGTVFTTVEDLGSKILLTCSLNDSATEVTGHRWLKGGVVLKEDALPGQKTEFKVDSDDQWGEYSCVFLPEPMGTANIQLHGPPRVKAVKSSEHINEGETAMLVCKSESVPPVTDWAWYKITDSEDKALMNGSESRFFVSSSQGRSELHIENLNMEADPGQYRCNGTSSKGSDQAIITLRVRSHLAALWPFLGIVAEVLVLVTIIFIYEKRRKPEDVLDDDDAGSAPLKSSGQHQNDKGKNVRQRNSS
UniProt P07355: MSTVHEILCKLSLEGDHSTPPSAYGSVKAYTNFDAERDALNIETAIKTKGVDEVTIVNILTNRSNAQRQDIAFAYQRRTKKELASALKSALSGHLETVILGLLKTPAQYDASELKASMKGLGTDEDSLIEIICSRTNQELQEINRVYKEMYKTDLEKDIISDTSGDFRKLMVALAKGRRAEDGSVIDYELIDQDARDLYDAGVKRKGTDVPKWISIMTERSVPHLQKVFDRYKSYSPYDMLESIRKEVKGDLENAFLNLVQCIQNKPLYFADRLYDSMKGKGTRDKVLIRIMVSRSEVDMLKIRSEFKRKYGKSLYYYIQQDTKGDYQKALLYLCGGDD

Legend:
[1] = biological target: CD147 (human (endogenous in SMMC-7721 and FHCC-98)) (UniProt P35613); assay: co-IP; total cellular membrane proteins (TMP) from SMMC-7721 and FHCC-98 cells on coupling gel pre-bound with 200 ug anti-ANXA2 mAb or anti-human CD147 mAb (ProFound Mammalian Co-Immunoprecipitation Kit); four washes; eluate blotted with anti-ANXA2 and anti-CD147 mAb; mouse IgG (anti-JEV mAb) as negative control
[2] = biological target: Annexin A2 (human (endogenous in SMMC-7721 and FHCC-98)) (UniProt P07355); assay: as above

binding [1] | binding [2] | Substance
binds | – | Annexin A2 (from UniProt P07355 1-339)
– | binds | CD147 (from UniProt P35613-2)
